Binding data for one molecule are collected here from paper doi:10.1101/702415 (bioRxiv, 2019).

Results are given in words; binding and its absence hold for the method and conditions named. Some entries that bind do so weakly or less than the wild type.

For this experiment, the target named is Ups1 T64C/K140C mutant (S. cerevisiae) (UniProt Q05776). The experiment in a line: cross-linking.

B1: Ups1 T64C/K140C mutant (protein, UniProt Q05776 1-175)
chain: MVLLHKSTHIFPTDFASVSRAFFNRYPNPYSPHVLSIDTISRNVDQEGNLRTTRLLKKSGKLPCWVKPFLRGITETWIIEVSVVNPANSTMKTYTRNLDHTGIMKVEEYTTYQFDSATSSTIADSRVKFSSGFNMGIKSCVEDWSRTKFDENVKKSRMGMAFVIQKLEEARNPQF
In the case of B1, the binding result is on record as “binds weakly”.
